This is one part of the list. Small differences around the control level are noise.

Chains of the proteins cited; added tags and fusions are not shown. Lines headed by an entry give the natural chain unless they say otherwise; changes in a name come on top.
UniProt Q6AI39, whole entry: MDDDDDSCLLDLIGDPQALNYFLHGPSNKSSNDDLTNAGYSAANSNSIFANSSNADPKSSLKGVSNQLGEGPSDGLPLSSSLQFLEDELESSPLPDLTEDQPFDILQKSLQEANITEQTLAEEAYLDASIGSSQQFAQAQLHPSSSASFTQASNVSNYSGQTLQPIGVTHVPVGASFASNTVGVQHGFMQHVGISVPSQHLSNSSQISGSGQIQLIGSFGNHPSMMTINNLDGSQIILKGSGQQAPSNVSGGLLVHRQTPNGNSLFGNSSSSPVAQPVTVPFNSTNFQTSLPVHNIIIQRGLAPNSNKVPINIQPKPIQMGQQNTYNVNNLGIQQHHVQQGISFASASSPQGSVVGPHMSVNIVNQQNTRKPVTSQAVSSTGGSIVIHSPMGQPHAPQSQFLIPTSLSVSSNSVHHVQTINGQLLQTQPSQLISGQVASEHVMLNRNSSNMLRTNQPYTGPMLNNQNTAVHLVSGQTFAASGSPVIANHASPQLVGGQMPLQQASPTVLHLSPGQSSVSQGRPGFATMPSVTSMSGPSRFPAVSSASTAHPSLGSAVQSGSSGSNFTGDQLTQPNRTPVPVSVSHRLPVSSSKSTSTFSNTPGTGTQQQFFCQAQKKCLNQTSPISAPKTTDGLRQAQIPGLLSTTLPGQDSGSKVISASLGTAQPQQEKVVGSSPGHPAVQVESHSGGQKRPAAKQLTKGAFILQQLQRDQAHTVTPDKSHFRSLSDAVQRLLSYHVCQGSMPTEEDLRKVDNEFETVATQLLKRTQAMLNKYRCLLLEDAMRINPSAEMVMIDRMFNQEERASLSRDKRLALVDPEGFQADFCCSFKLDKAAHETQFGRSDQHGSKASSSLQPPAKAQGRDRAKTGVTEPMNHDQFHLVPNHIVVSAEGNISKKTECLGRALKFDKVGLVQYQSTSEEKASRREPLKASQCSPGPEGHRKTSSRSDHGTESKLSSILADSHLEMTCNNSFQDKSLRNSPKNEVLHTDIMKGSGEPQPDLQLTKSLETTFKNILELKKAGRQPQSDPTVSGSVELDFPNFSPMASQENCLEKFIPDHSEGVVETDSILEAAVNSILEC
UniProt Q6PJG6: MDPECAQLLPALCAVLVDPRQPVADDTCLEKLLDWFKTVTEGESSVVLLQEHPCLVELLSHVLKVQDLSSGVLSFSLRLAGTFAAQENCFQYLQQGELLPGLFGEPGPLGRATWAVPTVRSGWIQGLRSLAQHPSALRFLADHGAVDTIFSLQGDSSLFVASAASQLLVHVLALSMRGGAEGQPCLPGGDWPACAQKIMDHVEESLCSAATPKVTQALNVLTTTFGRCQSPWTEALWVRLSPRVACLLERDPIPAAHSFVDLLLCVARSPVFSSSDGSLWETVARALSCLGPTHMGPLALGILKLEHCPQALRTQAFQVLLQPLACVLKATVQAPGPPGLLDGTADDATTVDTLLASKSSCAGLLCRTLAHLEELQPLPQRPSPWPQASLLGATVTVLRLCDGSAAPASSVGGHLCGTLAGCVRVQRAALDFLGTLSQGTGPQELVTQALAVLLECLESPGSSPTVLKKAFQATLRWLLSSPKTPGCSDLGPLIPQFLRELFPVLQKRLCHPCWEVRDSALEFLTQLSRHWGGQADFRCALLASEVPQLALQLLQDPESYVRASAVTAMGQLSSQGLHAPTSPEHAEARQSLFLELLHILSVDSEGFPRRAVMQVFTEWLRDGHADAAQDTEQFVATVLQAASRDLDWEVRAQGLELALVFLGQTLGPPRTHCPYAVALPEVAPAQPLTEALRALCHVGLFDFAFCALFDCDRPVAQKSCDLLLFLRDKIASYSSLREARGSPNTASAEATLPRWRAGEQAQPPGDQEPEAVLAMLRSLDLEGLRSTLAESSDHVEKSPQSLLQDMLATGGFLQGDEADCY
UniProt Q6PCD5: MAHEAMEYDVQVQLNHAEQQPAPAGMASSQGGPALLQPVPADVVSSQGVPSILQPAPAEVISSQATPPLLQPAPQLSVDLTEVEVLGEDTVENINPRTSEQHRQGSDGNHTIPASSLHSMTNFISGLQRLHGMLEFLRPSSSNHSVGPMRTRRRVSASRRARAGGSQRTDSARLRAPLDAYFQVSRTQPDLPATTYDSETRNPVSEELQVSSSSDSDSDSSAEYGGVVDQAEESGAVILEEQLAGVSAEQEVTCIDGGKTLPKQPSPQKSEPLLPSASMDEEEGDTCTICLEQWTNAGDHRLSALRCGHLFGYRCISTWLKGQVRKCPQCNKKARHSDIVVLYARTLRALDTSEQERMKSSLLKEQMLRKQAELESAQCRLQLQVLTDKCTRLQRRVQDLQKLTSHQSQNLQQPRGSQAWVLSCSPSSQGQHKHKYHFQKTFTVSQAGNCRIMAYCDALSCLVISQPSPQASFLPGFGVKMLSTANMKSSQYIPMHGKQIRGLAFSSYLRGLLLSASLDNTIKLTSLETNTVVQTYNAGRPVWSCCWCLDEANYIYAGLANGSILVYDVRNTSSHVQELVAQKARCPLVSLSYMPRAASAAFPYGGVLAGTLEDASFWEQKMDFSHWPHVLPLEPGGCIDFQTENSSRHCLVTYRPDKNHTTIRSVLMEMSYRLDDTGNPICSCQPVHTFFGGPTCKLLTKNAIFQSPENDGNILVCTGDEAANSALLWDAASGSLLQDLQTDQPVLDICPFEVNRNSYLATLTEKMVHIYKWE
UniProt Q6NVV7: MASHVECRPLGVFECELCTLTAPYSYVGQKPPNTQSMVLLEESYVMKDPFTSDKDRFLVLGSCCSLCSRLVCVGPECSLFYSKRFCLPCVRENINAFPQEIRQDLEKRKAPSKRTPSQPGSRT
UniProt Q6RFH5: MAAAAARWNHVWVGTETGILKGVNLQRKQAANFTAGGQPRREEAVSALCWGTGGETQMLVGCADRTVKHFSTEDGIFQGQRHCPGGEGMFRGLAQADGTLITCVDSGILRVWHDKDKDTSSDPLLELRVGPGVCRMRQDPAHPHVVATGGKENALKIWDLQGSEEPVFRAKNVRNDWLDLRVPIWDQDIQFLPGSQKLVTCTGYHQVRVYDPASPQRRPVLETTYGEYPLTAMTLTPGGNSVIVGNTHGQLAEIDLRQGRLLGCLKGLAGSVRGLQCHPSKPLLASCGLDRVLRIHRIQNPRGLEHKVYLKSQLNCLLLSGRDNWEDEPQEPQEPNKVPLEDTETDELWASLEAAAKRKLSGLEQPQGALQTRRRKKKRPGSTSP
UniProt Q6P1K2: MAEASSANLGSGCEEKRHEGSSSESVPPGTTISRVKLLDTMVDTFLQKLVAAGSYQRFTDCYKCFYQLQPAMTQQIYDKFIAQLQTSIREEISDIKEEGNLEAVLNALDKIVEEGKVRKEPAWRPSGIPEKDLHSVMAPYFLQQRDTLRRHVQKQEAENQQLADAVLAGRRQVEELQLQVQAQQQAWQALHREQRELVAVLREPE
UniProt Q6YHU6: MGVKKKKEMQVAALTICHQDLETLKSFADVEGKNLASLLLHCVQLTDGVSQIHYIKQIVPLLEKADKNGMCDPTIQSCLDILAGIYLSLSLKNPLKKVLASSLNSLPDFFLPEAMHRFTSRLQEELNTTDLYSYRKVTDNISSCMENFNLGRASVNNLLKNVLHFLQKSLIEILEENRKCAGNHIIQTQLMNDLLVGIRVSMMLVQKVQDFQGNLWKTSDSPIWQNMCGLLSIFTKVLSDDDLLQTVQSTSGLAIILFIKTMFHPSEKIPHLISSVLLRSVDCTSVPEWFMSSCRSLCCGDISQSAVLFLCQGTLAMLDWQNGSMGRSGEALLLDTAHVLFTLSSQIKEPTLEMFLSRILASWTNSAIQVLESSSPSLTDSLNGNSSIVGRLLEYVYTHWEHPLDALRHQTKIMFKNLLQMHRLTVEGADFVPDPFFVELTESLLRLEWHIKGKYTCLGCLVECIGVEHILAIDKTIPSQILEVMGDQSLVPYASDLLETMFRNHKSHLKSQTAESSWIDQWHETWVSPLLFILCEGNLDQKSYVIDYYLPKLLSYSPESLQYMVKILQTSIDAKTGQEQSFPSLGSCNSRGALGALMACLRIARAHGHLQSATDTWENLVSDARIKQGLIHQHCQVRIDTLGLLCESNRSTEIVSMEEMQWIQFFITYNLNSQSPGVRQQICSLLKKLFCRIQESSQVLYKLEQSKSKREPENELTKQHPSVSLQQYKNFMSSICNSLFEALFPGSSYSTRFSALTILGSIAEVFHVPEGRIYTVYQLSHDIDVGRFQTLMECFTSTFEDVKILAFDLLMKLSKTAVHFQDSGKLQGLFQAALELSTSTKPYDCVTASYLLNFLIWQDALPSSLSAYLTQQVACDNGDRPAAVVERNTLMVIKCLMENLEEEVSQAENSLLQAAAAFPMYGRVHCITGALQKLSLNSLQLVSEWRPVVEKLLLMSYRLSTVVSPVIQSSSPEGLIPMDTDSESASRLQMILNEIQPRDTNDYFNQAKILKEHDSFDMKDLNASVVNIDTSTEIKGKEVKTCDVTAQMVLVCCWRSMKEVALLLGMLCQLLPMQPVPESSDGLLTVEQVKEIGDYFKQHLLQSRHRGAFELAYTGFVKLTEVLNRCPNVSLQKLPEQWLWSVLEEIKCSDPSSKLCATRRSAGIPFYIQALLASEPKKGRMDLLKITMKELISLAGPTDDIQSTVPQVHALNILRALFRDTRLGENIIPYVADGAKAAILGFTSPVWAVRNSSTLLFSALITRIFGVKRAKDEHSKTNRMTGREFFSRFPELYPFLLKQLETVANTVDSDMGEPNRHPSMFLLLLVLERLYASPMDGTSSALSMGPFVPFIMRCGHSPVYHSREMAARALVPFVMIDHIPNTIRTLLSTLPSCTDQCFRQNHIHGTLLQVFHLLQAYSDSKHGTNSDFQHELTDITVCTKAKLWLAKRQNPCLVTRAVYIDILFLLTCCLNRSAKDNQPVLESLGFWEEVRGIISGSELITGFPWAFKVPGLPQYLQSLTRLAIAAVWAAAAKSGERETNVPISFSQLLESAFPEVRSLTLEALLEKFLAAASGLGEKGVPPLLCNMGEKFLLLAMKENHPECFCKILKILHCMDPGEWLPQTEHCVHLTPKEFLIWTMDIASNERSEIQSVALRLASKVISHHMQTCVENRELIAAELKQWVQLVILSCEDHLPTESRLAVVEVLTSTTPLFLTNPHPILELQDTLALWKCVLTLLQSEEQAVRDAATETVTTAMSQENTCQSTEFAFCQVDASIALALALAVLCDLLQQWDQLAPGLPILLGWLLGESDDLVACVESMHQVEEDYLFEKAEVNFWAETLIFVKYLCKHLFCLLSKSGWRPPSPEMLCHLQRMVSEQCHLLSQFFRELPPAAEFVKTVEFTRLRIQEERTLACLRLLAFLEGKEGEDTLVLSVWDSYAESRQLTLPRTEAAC
UniProt Q6P582, whole entry: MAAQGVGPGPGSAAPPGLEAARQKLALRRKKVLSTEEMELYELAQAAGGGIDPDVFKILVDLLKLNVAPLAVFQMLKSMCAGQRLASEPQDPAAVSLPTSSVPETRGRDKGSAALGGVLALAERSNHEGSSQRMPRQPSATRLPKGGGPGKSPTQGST
UniProt Q68D86: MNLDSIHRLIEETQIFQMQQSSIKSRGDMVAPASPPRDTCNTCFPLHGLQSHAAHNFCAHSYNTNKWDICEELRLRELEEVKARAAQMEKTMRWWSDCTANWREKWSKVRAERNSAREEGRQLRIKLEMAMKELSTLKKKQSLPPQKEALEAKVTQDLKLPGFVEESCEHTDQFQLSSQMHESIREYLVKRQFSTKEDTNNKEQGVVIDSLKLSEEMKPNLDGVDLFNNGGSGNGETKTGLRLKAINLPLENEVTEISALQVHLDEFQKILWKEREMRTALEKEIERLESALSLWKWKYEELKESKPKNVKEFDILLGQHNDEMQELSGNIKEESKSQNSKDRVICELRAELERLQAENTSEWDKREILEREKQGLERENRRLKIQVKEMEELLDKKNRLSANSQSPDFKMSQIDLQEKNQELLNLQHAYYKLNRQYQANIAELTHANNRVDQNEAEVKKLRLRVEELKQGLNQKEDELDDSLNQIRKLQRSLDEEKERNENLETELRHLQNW
UniProt Q6PK81: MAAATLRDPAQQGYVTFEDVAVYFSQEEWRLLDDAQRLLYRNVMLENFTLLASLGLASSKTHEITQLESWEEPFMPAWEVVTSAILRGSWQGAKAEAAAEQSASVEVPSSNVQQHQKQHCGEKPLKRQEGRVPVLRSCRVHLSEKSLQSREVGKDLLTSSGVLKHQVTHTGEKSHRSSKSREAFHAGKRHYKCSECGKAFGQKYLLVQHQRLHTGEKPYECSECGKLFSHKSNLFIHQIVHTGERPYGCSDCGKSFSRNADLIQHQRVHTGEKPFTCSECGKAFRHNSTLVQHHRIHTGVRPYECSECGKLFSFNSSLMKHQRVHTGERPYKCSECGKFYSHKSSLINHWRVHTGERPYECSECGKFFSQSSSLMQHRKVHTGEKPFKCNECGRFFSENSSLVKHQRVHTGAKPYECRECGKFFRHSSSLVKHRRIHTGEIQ

Compound in this assay: CN[C@@H]1C[C@H]2O[C@@](C)([C@@H]1OC)n1c3ccccc3c3c4c(c5c6ccccc6n2c5c31)C(=O)NC4 [staurosporine]
In words: log2 fold change of tryptic peptide abundance, ligand vs vehicle (limited proteolysis) (log2 ratio); higher = more trypsin-susceptible (destabilized). As to conditions: ligand concentration: 20 uM; sample: K562 cleared lysate; digestion: 4 min, 22 C (HT-PELSA RT4min, Orbitrap Astral).
With “BICRAL (peptide sequence: MFNQEER, peptide start residue: 797) (UniProt Q6AI39)”, the log2 fold change was determined as 0.359.

On to “UniProt Q6PJG6 (peptide sequence: SCDLLLFLR, peptide start residue: 719)”, for which the log2 fold change is -0.114.

In the case of “DENND4C (peptide sequence: MIEDKGPR, peptide start residue: 1) (UniProt Q5VZ89)”, the log2 fold change was -0.447.

Turning to “RFWD3 (peptide sequence: TFTVSQAGNCR, peptide start residue: 441) (UniProt Q6PCD5)”, the log2 fold change was 0.649.

For “RAB11FIP1 (peptide sequence: HRLHPVKPMNAMATK, peptide start residue: 1174) (UniProt Q6WKZ4)”, the log2 fold change amounted to 0.327.

For “UniProt Q6PI47 (peptide sequence: VLLSDKKPTPQR, peptide start residue: 364)”, the log2 fold change is 0.363.

With “TTC33 (peptide sequence: QLKDEGASLAENKR, peptide start residue: 61) (UniProt Q6PID6)”, the log2 fold change turned out to be 0.182.

Regarding “UniProt Q6NVV7 (peptide sequence: LVCVGPECSLFYSKR, peptide start residue: 70)”, the log2 fold change was -0.192.

With “WDR74 (peptide sequence: QDPAHPHVVATGGKENALK, peptide start residue: 138) (UniProt Q6RFH5)”, the log2 fold change turned out to be 0.489.

With “CRELD2 (peptide sequence: EHGQCADVDECSLAEKTCVR, peptide start residue: 284) (UniProt Q6UXH1)”, the log2 fold change was -0.797.

In the case of “PMF1 (peptide sequence: KEPAWRPSGIPEK, peptide start residue: 119) (UniProt Q6P1K2)”, the log2 fold change was -0.332.

As for “UniProt Q6EMB2 (peptide sequence: RIPVLVFHADAILTK, peptide start residue: 38)”, the log2 fold change was found to be 0.327.

Turning to “ACAD10 (peptide sequence: AEITAEGFLR, peptide start residue: 94) (UniProt Q6JQN1)”, the log2 fold change is 0.611.

Regarding “THADA (peptide sequence: DLNASVVNIDTSTEIK, peptide start residue: 1020) (UniProt Q6YHU6)”, the log2 fold change is -0.477.

Take “UniProt Q6P2P2 (peptide sequence: MGFRDEAAGYFHK, peptide start residue: 114)”: the log2 fold change is -0.192.

Consider “FBXW9 (peptide sequence: VHVPTDPPR, peptide start residue: 413) (UniProt Q5XUX1)”, for which the log2 fold change is -0.726.

Take “RSBN1L (peptide sequence: AHADHIGQGFER, peptide start residue: 570) (UniProt Q6PCB5)”: the log2 fold change stood at 0.417.

In the case of “UniProt Q6P582 (peptide sequence: QPSATRLPK, peptide start residue: 137)”, the log2 fold change was found to be 0.461.

Regarding “ATF7IP (peptide sequence: SEDMDNVQSK, peptide start residue: 559) (UniProt Q6VMQ6)”, the log2 fold change came out at 0.572.

In the case of “ARL6IP4 (peptide sequence: IQAMKPMTK, peptide start residue: 166) (UniProt Q66PJ3)”, the log2 fold change stood at 0.191.

With “CDCA2 (peptide sequence: SSLNGKGESSLTALER, peptide start residue: 999) (UniProt Q69YH5)”, the log2 fold change was 0.577.

Turning to “TXNDC11 (peptide sequence: ILVATMERK, peptide start residue: 923) (UniProt Q6PKC3)”, the log2 fold change came out at 0.0318.

Take “LLGL2 (peptide sequence: LVAFGTSHGFGLFDHQQR, peptide start residue: 602) (UniProt Q6P1M3)”: the log2 fold change was -0.715.

In the case of “KLHDC10 (peptide sequence: SAAQGWDR, peptide start residue: 2) (UniProt Q6PID8)”, the log2 fold change was -0.0802.

As for “UniProt Q68D86 (peptide sequence: EILEREK, peptide start residue: 367)”, the log2 fold change amounted to 0.0332.

With “UniProt Q6PK81 (peptide sequence: LHTGEKPYECSECGK, peptide start residue: 212)”, the log2 fold change stood at 0.0383.

For the origin of these results see the supplement of paper PMC12819154, “High-throughput peptide-centric local stability assay extends protein–ligand identification to membrane proteins, tissues and bacteria” (Nature Structural & Molecular Biology, 2025).
